Source: paper PMC12022293
No constants are given. Whether binding was seen depends on the method and setting. In cells and extracts the contact can be indirect. Some results given as binding are weak or reduced against the parent protein; the word gives no strength. Blank lines part the entries; values can stand above or below the substance they belong to.

Sequences of proteins named here, by UniProt entry; tags and fusion partners are left off.
UniProt Q5VVQ6: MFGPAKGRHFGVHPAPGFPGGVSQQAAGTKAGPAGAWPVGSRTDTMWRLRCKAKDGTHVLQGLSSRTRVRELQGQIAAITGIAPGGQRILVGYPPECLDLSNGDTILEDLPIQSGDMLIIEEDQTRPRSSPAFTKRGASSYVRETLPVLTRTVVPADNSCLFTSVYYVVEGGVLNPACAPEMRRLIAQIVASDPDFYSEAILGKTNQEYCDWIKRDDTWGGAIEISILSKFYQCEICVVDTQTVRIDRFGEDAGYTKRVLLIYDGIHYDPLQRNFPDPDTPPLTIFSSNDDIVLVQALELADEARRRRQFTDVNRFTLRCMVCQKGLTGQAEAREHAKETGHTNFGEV
UniProt P17028: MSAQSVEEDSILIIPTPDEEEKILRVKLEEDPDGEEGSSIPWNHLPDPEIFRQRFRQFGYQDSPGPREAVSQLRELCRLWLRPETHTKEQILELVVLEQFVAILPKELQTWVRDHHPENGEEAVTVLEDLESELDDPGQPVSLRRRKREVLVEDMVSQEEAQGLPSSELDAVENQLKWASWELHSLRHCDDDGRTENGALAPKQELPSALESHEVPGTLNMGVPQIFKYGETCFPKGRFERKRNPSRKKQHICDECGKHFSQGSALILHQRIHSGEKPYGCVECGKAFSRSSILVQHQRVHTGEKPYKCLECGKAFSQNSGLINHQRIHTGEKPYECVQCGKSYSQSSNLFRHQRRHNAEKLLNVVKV

How the values were obtained:
[1] = target: YOD1, endogenous (cell line not named, Fig. 3E, F) (human) (UniProt Q5VVQ6); assay: co-IP; endogenous proteins; cell lysate with anti-YOD1 or anti-ZNF24 antibody on Protein A/G magnetic beads, 4 °C overnight, PBST washes, Western blot
[2] = target: full-length Flag-YOD1 (human) (UniProt Q5VVQ6); assay: co-IP; one tagged protein or truncation overexpressed alone in HEK-293T, endogenous partner; immunoprecipitation with antibodies against the endogenous protein (ZNF24, YOD1) or against the tag (Flag, Myc)
[3] = target: full-length Flag-YOD1 (human) (UniProt Q5VVQ6); assay: co-IP; Flag- and Myc-tagged proteins cotransfected (HEK-293T); lysates immunoprecipitated with anti-Flag or anti-Myc antibodies, Western blot

binding [1]: binds
Substance: ZNF24, endogenous (cell line not named, Fig. 3E, F) (from UniProt P17028 1-368)

binding [2]: binds
Substance: ZNF24, endogenous in HEK-293T cells (from UniProt P17028 1-368)

binding [3]: binds
Substance: full-length Myc-ZNF24 (from UniProt P17028 1-368)
